Several values for one entry are separate records, joined by “and”; a condition that tells them apart may be missing. Equal values may be shown once. The name of at least one read-out is uncertain.
Key:
[1] = tested on: sporadic PD patient fibroblasts; assay: Cellular ATP levels in sporadic PD patient fibroblasts, full ATP assay; format: cell-based, human; settings: 3 sporadic PD patient fibroblasts, 24 h
Experimental: (§1) Primary fibroblast cells were cultured continuously in Glucose based medium (high glucose (4500 mg/L) Dulbecco's Modified Eagle's medium (DMEM; Sigma-Aldrich) supplemented with 10% fetal bovine serum (Sigma-Aldrich), 100 IU/mL penicillin, 100 μg/mL streptomycin (Lonza), 1 mM sodium pyruvate (Sigma-Aldrich) and 50 μg/mL uridine (Sigma-Aldrich)). Unless otherwise stated, 24 hours prior to analysis, the Glucose based medium was exchanged for Galactose based medium (glucose-free DMEM (Gibco) with the same supplementation and in addition, 5 mM galactose (Sigma-Aldrich)). All cells were assessed between passage 6-10.
The ATP protocol is generally as described in Mortiboys et al 2008. […] The wells are filled with 25 μl of Sterile PBS followed by 12.5 μl of Lysis solution from the ATPlite™ Luminescence ATP detection assay system (Perkin Elmer), including 16 cell free wells to use as blank controls. […] The plate is then placed in darkness for 10 minutes prior to reading. Using a PHERAStar® plate reader, luminescence intensity is recorded. […]
Immediately following The ATP assay DNA content is assessed with the CyQUANT® NF Cell Proliferation Assay Kit (ThermoFisher). […] Plate left in incubator for 1 hour then read on a PHERAStar© Plate reader with excitation at 497 nm and emission at 520 nm.
ATP Quantification for each well is determined using the following formula: […]

[2] = tested on: sporadic PD patient fibroblasts; assay: Mitochondrial membrane potential (MMP, TMRM) in sporadic PD patient fibroblasts; format: cell-based, human; settings: 3 sporadic PD patient fibroblasts, 24 h
Experimental: as §1
Fibroblasts were cultured and plated into a greiner black 384 μClear® plate at a concentration of 1000 cells per well in 50 μl of media volume. The plates are left overnight in an incubator to allow the fibroblasts to adhere to the plate surface. The following morning the Glucose based medium is replaced with 25 μl of Galactose based medium. The plates were then dosed with the compounds using an ECHO® 550 liquid handling system. The wells were dosed to provide an 8-point concentration range of 0.06 nM-300 nM of compound. After dosing the wells are topped up with a further 25 μl of Galactose based medium and then left in an incubator for 24 hours. […]

[3] = max response with highest dose of compound (300 nM)
[4] = max response with lowest dose of compound (0.06 nM)

CC(C)[C@H](N)C(=O)N1CC[C@@]2(C)[C@H](C[C@H](O)[C@@H]3[C@@H]2CC[C@]2(C)[C@@H]([C@H](C)CCCC(=O)O)CC[C@@H]32)C1 [Compound 41b, N-[(2S)-2-Amino-3-methylbutanoyl]-3-aza-7β-hydroxy-25-homo-5β-cholan-25-oic acid hydrotrifluoroacetate]
ATP % of vehicle, top % [1, 3]: 99.3% and 120.8% | ATP % of vehicle, bottom % [1, 4]: 76.4% | MMP % of vehicle, top % [2, 3]: 91.13% and 123.23% | MMP % of vehicle, bottom % [2, 4]: 94.3%

Source: patent US20250320246A1, “3-AZASTEROID COMPOUNDS FOR THE TREATMENT OF DISEASES RELATED TO MITROCHONDRIAL FUNCTION” (NZP UK LIMITED, priority 2022, published 2025)
